# Measurements: publication PMC4933242, “Low or No Inhibitory Potency of the Canonical Galectin Carbohydrate-binding Site by Pectins and Galactomannans” (The Journal of Biological Chemistry, 2016)
# Sequences of proteins named here, by UniProt entry; tags and fusion partners are left off.
# UniProt P09382: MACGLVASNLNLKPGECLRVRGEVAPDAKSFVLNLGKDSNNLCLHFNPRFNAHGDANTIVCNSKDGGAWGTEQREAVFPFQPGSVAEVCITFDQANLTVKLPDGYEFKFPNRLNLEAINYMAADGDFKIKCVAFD
# UniProt P17931: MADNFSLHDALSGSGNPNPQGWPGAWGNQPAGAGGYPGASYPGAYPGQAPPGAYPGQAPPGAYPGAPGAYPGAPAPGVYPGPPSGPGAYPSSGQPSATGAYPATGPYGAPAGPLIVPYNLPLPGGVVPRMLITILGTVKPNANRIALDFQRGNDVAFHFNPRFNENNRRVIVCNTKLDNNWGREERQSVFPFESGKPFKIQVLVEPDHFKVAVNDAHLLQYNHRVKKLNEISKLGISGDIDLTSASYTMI
# No constants are given. Whether binding was seen depends on the method and setting. Some entries that bind do so weakly or less than the wild type.
# Columns and labels:
# galectin-1 wild type = galectin-1 wild type (UniProt P09382); assay: turbidimetry (precipitation); absorption at 350 nm of galectin-ASF precipitates; galectin-1- or galectin-3-induced aggregation of ASF with increasing concentrations of Davanat; both purified
# galectin-3 = galectin-3 (UniProt P17931); assay: as above
binder,measurement,setting,value
"asialofetuin (protein, UniProt P12763 19-359) IPLDPVAGYKEPACDDPDTEQAALAAVDYINKHLPRGYKHTLNQIDSVKVWPRRPTGEVYDIEIDTLETTCHVLDPTPLANCSVRQQTQHAVEGDCDIHVLKQDGQFSVLFTKCDSSPDSAEDVRKLCPDCPLLAPLNDSRVVHAVEVALATFNAESNGSYLQLVEISRAQFVPLPVSVSVEFAVAATDCIAKEVVDPTKCNLLAEKQYGFCKGSVIQKALGGEDVRVTCTLFQTQPVIPQPQPDGAEAEAPSAVPDAAGPTPSAAGPPVASVVVGPSVVAVPLPLHRAHYDLRHTFSGVASVESSSGEAFHVGKTPIVGQPSIPGGPVRLCPGRIRYFKI",binding,galectin-1 wild type,binds
same,binding,galectin-3,binds
